Reference: US20030113320A1 (BURNHAM INSTITUTE, published 2003)
Results are given in words; binding and its absence hold for the method and conditions named. Some binding calls cover weakened binding; strength is not graded here.

Protein sequences, listed by entry. Tags and fused reporters are not part of them. Lines headed by an entry give the natural chain unless they say otherwise; changes in a name come on top.
UniProt P15144: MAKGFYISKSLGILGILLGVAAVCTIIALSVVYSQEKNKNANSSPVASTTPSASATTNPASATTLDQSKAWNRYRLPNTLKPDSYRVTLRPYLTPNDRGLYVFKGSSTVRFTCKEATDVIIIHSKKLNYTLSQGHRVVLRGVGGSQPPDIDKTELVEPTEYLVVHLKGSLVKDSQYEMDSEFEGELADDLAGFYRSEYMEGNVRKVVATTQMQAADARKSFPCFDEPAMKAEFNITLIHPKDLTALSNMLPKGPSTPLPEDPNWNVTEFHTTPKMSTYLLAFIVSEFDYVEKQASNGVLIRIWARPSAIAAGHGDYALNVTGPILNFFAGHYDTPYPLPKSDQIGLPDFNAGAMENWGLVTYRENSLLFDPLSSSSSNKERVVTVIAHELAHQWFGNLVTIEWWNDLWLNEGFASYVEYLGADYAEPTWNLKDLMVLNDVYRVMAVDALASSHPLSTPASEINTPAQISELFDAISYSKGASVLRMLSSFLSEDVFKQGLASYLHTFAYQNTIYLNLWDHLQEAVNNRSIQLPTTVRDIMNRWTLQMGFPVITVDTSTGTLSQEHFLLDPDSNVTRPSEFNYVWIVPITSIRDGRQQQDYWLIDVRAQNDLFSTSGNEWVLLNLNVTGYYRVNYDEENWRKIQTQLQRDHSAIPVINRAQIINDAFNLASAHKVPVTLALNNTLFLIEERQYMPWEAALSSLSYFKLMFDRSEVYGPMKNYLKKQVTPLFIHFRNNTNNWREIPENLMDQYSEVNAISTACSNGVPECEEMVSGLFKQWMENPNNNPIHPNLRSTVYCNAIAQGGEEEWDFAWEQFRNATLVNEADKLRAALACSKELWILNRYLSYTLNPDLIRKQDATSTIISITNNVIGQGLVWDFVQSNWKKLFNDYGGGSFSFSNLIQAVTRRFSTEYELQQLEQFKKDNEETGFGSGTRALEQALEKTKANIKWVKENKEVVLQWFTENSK

Legend:
[1] = biological target: CD13/aminopeptidase N on CD13-transfected cells (Molt-4/CD13, MDA-MB-435/CD13) (Homo sapiens (Human)) (UniProt P15144); experiment: phage binding to Molt-4 cells transfected with CD13 (figure legend)
[2] = biological target: CD13/aminopeptidase N (CD13/APN), isolated from octylglucoside cell extracts (Homo sapiens (Human)) (UniProt P15144); experiment: phage binding to CD13 immobilized by WM15 on microtiter wells (figure legend)
[3] = biological target: CD13/aminopeptidase N on CD13-transfected cells (Molt-4/CD13, MDA-MB-435/CD13) (Homo sapiens (Human)) (UniProt P15144); experiment: phage binding to transfected cells; 2 x 10^9 TU per sample; bound phage counted by infection of bacteria

Measured: binding

CNGRC (peptide, not shown: large carriers) [CNGRC (SEQ ID NO:8) phage]
binds: all assays above
